Reference: the supplement of paper PMC12067093, “Discovery and optimisation of a covalent ligand for TRIM25 and its application to targeted protein ubiquitination” (Chemical Science, 2025)
Some of the results follow.

Protein sequences, listed by entry. Tags and fused reporters are not part of them. Lines headed by an entry give the natural chain unless they say otherwise; changes in a name come on top.
UniProt P28799: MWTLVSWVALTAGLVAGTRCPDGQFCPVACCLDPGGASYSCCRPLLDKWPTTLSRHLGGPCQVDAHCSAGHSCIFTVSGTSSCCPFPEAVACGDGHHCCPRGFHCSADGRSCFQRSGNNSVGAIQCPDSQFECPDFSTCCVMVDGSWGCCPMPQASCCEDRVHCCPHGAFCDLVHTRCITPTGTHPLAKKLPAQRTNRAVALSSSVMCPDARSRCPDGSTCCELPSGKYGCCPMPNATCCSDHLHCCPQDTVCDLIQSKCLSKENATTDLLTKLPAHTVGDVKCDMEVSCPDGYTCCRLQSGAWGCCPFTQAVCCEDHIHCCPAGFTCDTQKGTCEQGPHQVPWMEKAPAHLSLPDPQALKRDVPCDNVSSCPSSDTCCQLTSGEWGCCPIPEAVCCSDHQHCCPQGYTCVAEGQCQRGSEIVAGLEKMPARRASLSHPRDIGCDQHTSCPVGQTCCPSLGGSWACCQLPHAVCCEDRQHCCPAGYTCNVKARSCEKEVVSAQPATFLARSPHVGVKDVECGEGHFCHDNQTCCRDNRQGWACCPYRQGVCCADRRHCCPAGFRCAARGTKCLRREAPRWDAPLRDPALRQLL
UniProt Q9P0R6: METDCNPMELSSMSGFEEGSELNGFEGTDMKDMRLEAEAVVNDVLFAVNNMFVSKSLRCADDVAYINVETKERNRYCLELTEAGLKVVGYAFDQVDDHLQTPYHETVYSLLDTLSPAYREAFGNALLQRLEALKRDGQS
UniProt P40939: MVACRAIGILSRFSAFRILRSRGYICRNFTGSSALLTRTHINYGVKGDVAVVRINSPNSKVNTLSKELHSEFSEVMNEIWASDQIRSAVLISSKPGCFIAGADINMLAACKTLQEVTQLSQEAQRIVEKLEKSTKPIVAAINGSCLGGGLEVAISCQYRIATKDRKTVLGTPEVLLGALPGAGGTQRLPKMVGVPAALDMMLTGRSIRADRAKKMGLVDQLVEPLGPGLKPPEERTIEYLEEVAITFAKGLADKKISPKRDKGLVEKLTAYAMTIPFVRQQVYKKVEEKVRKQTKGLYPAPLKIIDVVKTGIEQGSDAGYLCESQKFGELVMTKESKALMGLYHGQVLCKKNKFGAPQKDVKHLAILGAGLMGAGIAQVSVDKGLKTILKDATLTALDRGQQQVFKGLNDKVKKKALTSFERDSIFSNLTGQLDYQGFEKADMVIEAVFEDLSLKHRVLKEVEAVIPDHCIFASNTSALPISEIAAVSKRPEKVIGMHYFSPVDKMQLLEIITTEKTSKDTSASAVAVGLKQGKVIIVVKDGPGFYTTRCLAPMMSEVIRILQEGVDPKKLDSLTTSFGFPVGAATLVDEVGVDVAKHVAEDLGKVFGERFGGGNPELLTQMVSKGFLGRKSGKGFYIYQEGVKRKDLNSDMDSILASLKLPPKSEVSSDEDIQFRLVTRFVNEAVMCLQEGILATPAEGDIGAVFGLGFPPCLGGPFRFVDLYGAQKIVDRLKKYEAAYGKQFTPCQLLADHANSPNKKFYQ
UniProt P57764: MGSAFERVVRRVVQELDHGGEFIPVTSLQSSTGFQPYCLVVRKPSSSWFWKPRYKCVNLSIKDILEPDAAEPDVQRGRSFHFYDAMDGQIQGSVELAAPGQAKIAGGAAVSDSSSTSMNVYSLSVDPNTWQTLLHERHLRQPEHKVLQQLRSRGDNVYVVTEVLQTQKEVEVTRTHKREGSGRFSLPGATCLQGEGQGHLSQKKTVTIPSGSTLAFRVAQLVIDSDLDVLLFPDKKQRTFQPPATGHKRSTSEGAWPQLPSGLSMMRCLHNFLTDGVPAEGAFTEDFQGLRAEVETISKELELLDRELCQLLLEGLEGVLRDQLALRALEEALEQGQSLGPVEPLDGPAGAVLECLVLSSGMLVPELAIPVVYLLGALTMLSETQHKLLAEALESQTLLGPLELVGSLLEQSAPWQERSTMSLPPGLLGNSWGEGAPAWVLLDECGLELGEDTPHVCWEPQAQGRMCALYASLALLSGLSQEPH
UniProt Q9NVX0: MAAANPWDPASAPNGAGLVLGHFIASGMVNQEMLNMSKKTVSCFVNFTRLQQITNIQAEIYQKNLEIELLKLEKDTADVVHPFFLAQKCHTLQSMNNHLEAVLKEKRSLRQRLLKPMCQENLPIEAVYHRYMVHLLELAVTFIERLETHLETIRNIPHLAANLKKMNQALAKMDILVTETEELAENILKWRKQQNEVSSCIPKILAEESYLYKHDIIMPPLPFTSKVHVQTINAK
UniProt P21266: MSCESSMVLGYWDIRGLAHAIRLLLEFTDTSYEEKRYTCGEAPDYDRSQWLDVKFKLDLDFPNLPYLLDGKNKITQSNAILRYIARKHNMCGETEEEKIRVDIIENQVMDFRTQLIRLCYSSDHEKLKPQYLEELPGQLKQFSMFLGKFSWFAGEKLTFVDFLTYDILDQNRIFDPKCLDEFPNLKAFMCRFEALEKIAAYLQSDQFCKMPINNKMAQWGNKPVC
UniProt P49841: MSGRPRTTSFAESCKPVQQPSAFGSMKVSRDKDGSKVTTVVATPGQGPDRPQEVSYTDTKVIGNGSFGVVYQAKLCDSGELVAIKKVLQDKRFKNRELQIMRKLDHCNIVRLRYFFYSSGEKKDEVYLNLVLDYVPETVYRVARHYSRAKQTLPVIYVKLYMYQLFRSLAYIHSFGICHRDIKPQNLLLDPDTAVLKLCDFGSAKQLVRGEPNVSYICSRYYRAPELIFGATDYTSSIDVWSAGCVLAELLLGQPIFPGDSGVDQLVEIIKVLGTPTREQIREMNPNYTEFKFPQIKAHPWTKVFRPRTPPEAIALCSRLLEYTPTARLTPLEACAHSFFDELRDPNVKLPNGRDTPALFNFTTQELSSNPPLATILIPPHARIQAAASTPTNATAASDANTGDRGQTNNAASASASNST
UniProt P15170, whole entry, looked up: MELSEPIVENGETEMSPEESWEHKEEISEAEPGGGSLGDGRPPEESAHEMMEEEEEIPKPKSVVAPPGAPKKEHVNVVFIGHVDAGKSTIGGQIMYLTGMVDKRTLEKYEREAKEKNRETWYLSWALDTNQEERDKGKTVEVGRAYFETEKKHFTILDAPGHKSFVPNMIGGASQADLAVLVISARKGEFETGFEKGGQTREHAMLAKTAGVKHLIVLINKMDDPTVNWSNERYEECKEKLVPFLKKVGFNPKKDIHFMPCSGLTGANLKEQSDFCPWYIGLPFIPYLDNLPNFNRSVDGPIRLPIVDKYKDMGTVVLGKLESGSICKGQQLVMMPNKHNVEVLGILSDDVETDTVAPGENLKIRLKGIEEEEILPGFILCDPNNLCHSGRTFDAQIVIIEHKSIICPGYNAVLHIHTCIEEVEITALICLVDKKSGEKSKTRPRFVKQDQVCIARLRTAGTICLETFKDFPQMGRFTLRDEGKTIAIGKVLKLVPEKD
UniProt Q9UKN8: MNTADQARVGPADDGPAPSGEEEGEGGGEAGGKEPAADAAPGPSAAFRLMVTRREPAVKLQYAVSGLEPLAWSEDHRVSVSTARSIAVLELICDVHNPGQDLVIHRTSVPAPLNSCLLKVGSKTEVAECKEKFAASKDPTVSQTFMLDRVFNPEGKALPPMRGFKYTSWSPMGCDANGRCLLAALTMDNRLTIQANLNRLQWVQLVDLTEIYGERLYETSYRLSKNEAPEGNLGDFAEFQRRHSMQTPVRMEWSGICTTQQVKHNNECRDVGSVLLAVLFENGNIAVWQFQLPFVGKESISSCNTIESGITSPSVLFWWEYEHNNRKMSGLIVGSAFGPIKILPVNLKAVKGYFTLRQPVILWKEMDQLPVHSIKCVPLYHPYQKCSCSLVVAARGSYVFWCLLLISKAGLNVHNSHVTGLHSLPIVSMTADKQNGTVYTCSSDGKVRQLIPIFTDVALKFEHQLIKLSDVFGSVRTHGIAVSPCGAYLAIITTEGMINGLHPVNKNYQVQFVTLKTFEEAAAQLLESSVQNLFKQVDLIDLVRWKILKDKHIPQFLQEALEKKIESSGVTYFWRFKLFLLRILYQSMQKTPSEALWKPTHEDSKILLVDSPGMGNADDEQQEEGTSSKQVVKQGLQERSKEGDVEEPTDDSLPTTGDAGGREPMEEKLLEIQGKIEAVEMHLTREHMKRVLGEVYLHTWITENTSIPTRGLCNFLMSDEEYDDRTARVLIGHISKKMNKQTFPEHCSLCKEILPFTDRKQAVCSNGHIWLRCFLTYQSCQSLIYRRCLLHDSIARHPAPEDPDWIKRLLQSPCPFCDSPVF
UniProt Q12789: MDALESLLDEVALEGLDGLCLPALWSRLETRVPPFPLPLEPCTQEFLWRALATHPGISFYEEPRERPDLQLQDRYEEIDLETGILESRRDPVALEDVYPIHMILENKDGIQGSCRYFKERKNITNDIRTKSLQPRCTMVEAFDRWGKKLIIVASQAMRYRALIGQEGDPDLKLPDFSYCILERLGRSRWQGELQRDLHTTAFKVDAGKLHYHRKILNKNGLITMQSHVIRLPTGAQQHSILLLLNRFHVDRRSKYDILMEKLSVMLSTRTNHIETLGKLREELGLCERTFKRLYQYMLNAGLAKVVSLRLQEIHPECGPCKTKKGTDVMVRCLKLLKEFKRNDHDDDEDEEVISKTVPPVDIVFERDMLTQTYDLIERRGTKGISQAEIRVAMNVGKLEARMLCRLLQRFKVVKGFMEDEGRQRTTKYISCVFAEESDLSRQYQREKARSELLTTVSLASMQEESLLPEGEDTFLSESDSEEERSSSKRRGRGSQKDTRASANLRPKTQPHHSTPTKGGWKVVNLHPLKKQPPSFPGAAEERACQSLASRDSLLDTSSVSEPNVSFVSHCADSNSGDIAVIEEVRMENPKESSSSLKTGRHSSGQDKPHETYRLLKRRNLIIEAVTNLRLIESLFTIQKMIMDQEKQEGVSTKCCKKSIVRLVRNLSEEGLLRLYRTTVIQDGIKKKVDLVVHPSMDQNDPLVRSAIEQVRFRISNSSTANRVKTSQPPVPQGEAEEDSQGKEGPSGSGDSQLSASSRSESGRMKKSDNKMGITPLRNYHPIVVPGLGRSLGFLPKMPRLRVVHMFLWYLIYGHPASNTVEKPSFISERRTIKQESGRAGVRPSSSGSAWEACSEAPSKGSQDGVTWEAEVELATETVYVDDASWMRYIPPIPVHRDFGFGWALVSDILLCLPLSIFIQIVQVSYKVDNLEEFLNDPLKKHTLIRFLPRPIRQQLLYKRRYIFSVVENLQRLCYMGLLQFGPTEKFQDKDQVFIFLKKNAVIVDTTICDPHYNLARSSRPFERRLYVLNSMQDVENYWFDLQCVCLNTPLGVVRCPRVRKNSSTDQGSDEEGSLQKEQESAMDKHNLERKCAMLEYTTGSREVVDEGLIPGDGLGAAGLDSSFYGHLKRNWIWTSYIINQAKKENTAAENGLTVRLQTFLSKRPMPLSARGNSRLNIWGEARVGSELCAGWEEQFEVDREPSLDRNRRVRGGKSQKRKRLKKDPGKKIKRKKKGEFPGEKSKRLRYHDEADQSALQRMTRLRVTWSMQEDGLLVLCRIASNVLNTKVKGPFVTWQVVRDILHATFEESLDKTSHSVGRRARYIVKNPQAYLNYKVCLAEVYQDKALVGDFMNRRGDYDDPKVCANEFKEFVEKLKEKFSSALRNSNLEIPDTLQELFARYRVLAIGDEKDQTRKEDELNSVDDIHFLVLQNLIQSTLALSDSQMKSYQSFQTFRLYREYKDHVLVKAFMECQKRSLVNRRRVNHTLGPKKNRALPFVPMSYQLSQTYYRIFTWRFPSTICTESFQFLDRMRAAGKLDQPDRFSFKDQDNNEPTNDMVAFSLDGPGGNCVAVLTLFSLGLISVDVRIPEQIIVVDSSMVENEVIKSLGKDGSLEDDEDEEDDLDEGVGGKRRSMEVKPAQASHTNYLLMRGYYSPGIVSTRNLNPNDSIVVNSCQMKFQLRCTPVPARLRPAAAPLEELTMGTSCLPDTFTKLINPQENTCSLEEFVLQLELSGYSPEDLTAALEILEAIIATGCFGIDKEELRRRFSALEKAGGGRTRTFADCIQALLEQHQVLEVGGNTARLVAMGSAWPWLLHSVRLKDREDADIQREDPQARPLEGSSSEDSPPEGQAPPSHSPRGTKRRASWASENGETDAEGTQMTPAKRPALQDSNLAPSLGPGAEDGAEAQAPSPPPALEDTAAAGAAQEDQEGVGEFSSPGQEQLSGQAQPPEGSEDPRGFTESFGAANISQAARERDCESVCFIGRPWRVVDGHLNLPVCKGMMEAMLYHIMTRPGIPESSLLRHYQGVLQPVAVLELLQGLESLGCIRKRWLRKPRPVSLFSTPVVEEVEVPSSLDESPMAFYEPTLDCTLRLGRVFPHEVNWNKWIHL

These targets were tested with Cc1cc(ccc1-c1ccccc1)C(=O)N1CCCN(CC1)C(=O)CCl [compound 10] (assay: probe-labelled cysteine peptide fold change vs DMSO (competition) (log2 fold change); higher = less target engagement (more negative = stronger competition)). Settings: 10 µM; THP-1; incubation time: 4 h.
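Also: competitive profiling in live THP-1 cells: cysteine peptides tagged with an iodoacetamide desthiobiotin (IA-DTB) probe, intensity after compound treatment relative to DMSO-treated cells.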

First: GRN_P28799_534_DVECGEGHFCHDNQTCCR (UniProt P28799)
Second: GSKIP_Q9P0R6_59_CADDVAYINVETK (UniProt Q9P0R6)
The “probe-labelled cysteine peptide fold change” value of the first is lower: -0.158 for the first, 0.169 for the second.

First: HADHA_P40939_349_ALMGLYHGQVLCK (UniProt P40939)
Second: GSDMD_P57764_56_CVNLSIK (UniProt P57764)
The “probe-labelled cysteine peptide fold change” value of the first is lower: -0.165 for the first, 0.0791 for the second.

Going from “GTPBP1_O00178_515_YQAMVHCGSIR (UniProt O00178)” to “HAUS2_Q9NVX0_89_CHTLQSMNNHLEAVLK (UniProt Q9NVX0)”, the “probe-labelled cysteine peptide fold change” value rises from 0.0647 to 0.0751.

First: GSTM3_P21266_119_LCYSSDHEK (UniProt P21266)
Second: GSK3B_P49841_76_LCDSGELVAIKK (UniProt P49841)
The “probe-labelled cysteine peptide fold change” value of the first is higher: -0.0202 for the first, -0.065 for the second.

Going from “H2AFY2_Q9P0M6_286_CEEQLEETIK (UniProt Q9P0M6)” to “GSPT1_P15170_453_FVKQDQVCIAR (UniProt P15170)”, the “probe-labelled cysteine peptide fold change” value falls from 0.0719 to -0.29.

Going from “GTF3C4_Q9UKN8_93_SIAVLELICDVHNPGQDLVIHR (UniProt Q9UKN8)” to “GTF2I_P78347_903_ITINPGCVVVDGMPPGVSFK (UniProt P78347)”, the “probe-labelled cysteine peptide fold change” value falls from 0.223 to 0.0896.

Going from “GTF3C1_Q12789_1008_NAVIVDTTICDPHYNLAR (UniProt Q12789)” to “GTPBP4_Q9BZE4_261_AAVLYVMDLSEQCGHGLR (UniProt Q9BZE4)”, the “probe-labelled cysteine peptide fold change” value rises from -0.0797 to 0.331.

Compared with “GSDMD_P57764_268_CLHNFLTDGVPAEGAFTEDFQGLR (UniProt P57764)”, “GSPT1_P15170_381+387_GIEEEEILPGFILCDPNNLCHSGR (UniProt P15170)” is lower in “probe-labelled cysteine peptide fold change” value: 0.567 for the first, 0.154 for the second.
